Library screen at single concentrations

Chains of the proteins cited; added tags and fusions are not shown. Residues count along the entry.
UniProt Q8IDJ8, 1-583: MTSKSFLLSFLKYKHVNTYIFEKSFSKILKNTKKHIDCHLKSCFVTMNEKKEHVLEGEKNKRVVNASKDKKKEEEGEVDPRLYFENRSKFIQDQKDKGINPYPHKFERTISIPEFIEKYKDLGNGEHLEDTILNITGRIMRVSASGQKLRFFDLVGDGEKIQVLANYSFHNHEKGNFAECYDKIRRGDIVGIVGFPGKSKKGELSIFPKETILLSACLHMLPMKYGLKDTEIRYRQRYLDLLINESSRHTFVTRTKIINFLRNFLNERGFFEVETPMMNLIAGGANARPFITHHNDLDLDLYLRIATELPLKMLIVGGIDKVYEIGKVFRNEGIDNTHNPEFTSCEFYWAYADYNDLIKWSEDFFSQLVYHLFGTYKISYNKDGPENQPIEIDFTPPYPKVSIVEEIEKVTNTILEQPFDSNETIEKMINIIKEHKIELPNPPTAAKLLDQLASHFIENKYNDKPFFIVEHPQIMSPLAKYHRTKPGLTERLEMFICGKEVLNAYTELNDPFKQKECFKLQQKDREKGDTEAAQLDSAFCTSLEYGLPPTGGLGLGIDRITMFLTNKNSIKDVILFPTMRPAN

Source: ChEMBL document CHEMBL3988442, “University of Dundee, Small-Polar-MMV Screening Library” (2021).

T. brucei: 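Whole-parasite assay of Trypanosoma brucei over 72 hours; the read-out is not stated. Concentration: 30 µM. Direction is inferred from retests: higher values go with stronger inhibition. Values scatter widely below zero; nearly all retest evidence comes from the higher of the two concentrations used. Of about 64,000 compounds tested this way, about 940 (1.5%) reached 50% or more in at least one test.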
PfKRS1: 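Enzyme assay of the cytosolic lysyl-tRNA synthetase in 384-well plates, read by luminescence. Target: Lysine-tRNA ligase, Plasmodium falciparum 3D7 (UniProt Q8IDJ8). Compounds at 30 µM. Higher reads as stronger inhibition, judged from the few compounds that gave an IC50. About 69,000 compounds were tested under these conditions; 0.071% (about 49) showed 50% or more at least once.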

The filed quantity is “Percent Effect” (%). The record does not define 0% and 100%; most values in the screen are far below 50% and negative numbers occur (in some assays of this library far below -100). The compounds are a random part of those screened. A dash means the value is not listed here; it may have been measured.

SMILES,T. brucei,PfKRS1
CN(Cc1ccco1)C(=O)C1=NN(C)C(=O)CC1,-26.31%,1.778%
[H][C@@]12CS(=O)(=O)C[C@]1([H])N(Cc1cc(F)cc(F)c1)CCN2CCO,-20.25%,-
COc1ccc(OC2CCN(c3ccncc3)CC2)cc1,2.809%,3.087%
O=c1c(NCCNCCO)c(N2CCN(Cc3ccccc3)CC2)c1=O,-18.41%,4.197%
COc1ccccc1S(=O)(=O)NCC(c1cccn1C)N(C)C (stereo not shown),15.98%,3.03%
CSCC(CCO)Nc1cccc(C(F)(F)F)n1 (stereo not shown),-17.04%,2.611%
COc1cc(C(=O)N(Cc2cnn(C)c2)C(C)C)ccc1C,-17.46%,2.938%
CN(C)C(CNS(=O)(=O)c1cc(F)ccc1F)c1cccn1C (stereo not shown),-13.35%,6.134%
[H][C@@]12OCCC[C@]1([H])N(C(N)=O)C[C@@H]2NC(=O)c1cscn1,-72.36%,-
O=C(O)C(F)(F)F.[H][C@@]12CCN(Cc3nccs3)[C@]1([H])CC[C@H](C(=O)NCc1ccco1)O2,-28.41%,-
CC(=O)N1CCC(c2cc(Nc3ncccn3)nc(C)n2)C1 (stereo not shown),12.5%,2.183%
O=C(NCc1ccccn1)[C@@H]1COC[C@H]2CN(C3CCC3)C[C@H]21,-,2.06%
Cl.O=C(Nc1nc2c(s1)CNCC2)C1CC1,-65.53%,-
CC(NC(=O)CSCC#N)c1ccccc1 (stereo not shown),3.794%,7.923%
COc1ccc(C(=O)NCc2cccnc2N2CCOCC2)o1,-8.073%,3.041%
CC1CCc2n[nH]c(C(=O)NCCCc3ccco3)c2C1 (stereo not shown),19.56%,2.765%
CC(C)N1CCN(c2ccc3ccc(C(=O)NC4CCCC4)cn23)CC1,-,-1.495%
O=C(c1ccco1)N1CCc2ncnc(NCc3ccccn3)c2CC1,-65.36%,2.091%
CN1CCC/C1=N\S(=O)(=O)c1ccc(NC(=O)c2cccs2)cc1,4.827%,-1.475%
O=C(NC1CC1)c1cn(C2CCN(c3cc(C4CC4)ncn3)CC2)nn1,-28.99%,-2.073%
O=C(c1ccsc1)N1CC[C@@H](N2CCOCC2)[C@@H]1Cc1ccccc1,19.38%,7.895%
COC(=O)c1ccc(CN(C(C)C)C(C)C)o1,-,0.9932%
COCCC(=O)Nc1cc(CC(C)(C)C)n[nH]1,4.755%,10.34%
CC[C@H]1CN(C(=O)c2cnc(CN3CCCC3)s2)CC[C@@]1(C)O,-16.81%,-0.3534%
COC[C@@]12CCO[C@@H]1CCN(C(=O)Cc1cccc(F)c1)C2,-,5.112%
O=C(O)c1cncc(Cc2ccc(F)cc2)c1,-,3.036%
NC(=O)C(NCc1nn(-c2ccccc2)c2c1CCC2)c1ccccc1 (stereo not shown),-,0.4003%
O=C(C1CCOCC1)N1C[C@H](OCc2cccnc2)[C@H]2COC[C@H]21,-,-4.422%
O=C(NC1CC1)[C@H]1C[C@H]2OCC[C@H]2N(Cc2ccc(F)cc2)C1,-,6.095%
CN(CCOc1ccc(C#N)cc1)CC1CCS(=O)(=O)C1 (stereo not shown),-73.64%,11.48%
COc1ccc(-c2cc(CC3(NCc4ccc(C)o4)COC3)no2)cc1,-50.69%,-5.851%
CC(C)c1nc(C2CCCN2C(=O)c2cnns2)no1 (stereo not shown),-,0.1242%
COCCn1cc(C(=O)NCCS(N)(=O)=O)c2ccccc21,-22.88%,0.7348%
Cc1nc2cc(=O)[nH]n2c(C)c1CC(=O)Nc1cn[nH]c1,-20.44%,4.956%
Cc1cccc(CN2C(=O)CC[C@@H]3[C@H]2CCN3CC2CCOCC2)n1,-,0.8699%
CN(C)C1CCN(C(=O)c2ccnn2-c2ccc3ccccn23)CC1,-,2.057%
N#CC1CCCN(S(=O)(=O)c2ccc(C(=O)NCC(F)F)cc2)C1 (stereo not shown),-27.39%,0.836%
Cc1cn2c(n1)CCC(NC(=O)c1oc(Br)cc1C)C2 (stereo not shown),-0.0205%,1.241%
COC(=O)N(C)CCCC(=O)Nc1[nH]nc(-c2ccncc2)c1C,-2.151%,6.398%
COCC1CN(S(=O)(=O)N(C)C)Cc2ncn(CC3CC3)c21.O=C(O)C(F)(F)F (stereo not shown),-78.88%,-
COCCc1noc(CN2CCCC(Cn3nc(C)nc3C)C2)n1 (stereo not shown),-17.19%,4.937%
Cc1cccc(C)c1NC(=O)CCNC(=O)c1ccoc1,-1.911%,1.631%
Cc1ccc(CC(=O)NCC(O)c2cc(Cl)cc(Cl)c2)cn1 (stereo not shown),-24.81%,6.45%
CC(C)N1CCC(CNCc2c[nH]nc2C(C)(C)C)C1 (stereo not shown),2.003%,4.287%
O=C(O)C(F)(F)F.O=C(O)C(F)(F)F.[H][C@]12CCC(=O)N(CC3CCOCC3)[C@@]1([H])CCN2Cc1ccccn1,-18.75%,-
COc1cccc(/C=C/CCN2CCN(S(C)(=O)=O)CC2)c1,3.361%,5.219%
CC(C)c1ccc(OCCC(=O)N2CCCN(C(N)=O)CC2)cc1,12.48%,-0.02707%
CCOc1ccc(C(=O)NCc2ccnc(N3CCCC3)c2)cn1,2.15%,6.61%
N#Cc1cccc(CN2CC[C@@H]3[C@@H]2CC(=O)N3Cc2cccnc2)c1,-,3.491%
Cc1csc(CNC(=O)N2CCN(Cc3ccco3)CC2)n1,19.08%,0.07938%
O=C1CC2(CCSC2)C(=O)N1Cc1ncc(-c2ccccc2)o1 (stereo not shown),-15.01%,0.4123%
CCn1cnnc1CNC(=O)N1CCN(CC(C)C)CC1,-,-0.7992%
[H][C@]12CCN(C(=O)COC)[C@@]1([H])CC[C@H](COCC1CCOCC1)O2,-61.61%,-
CCNC(=O)[C@@H]1C[C@H](N)CN1C(=O)Cc1cc(C)ccc1C,-11.56%,5.205%
O=C(O)C(F)(F)F.O=C(O)C(F)(F)F.[H][C@@]12COC[C@]1(CN(C)C)CN(Cc1ccc3c(c1)OCO3)C2,5.402%,-
CCCC(=O)N1CCC2(CC1)OCCO2,-12.48%,4.902%
Cc1ccc(C(=O)N2CCN(CCCSCC#N)CC2)cc1F,-38.34%,-2.123%
O=C(c1ccoc1)N1CCO[C@@H]2CNC[C@@H]21,-,5.406%
O=C(CCO)N1C[C@H]2CC[C@@H]1CN(C1Cc3ccccc3C1)C2,-,3.059%
Cc1cc(C(F)(F)F)cc(=O)n1Cc1nc(C(C)C)no1,-19.61%,3.796%
CC(C)(C)C(=O)NCCC(=O)NS(=O)(=O)c1cccnc1,-36.22%,-1.668%
CC(NC(=O)Cn1cccn1)c1ccc2c(c1)OCCO2 (stereo not shown),-8.111%,0.1684%
Cc1ccoc1C(=O)N1Cc2c(Cn3ccnc3)nn(C)c2C1.O=C(O)C(F)(F)F,-27.6%,-
CC1CCN(C(=O)C2CCN(S(C)(=O)=O)CC2)c2ccccc21 (stereo not shown),-5.203%,0.8726%
O=C(O)C(F)(F)F.[H][C@@]12CCCO[C@]1([H])[C@H](NC(=O)c1cscn1)CN2Cc1cccs1,-8.809%,-
Cc1cccc(C)c1C(=O)N1C[C@@H](CN2CCOCC2)[C@@H](CO)C1,-33.92%,1.973%
CCc1nccn1C1CCCN(C(=O)c2ccc3nncn3c2)C1 (stereo not shown),43.6%,1.264%
Cc1ccc(=O)n(CC2(O)CCN(Cc3ccoc3)CC2)n1,8.124%,2.746%
COc1cccc(C2CC(=O)Nc3nc(N4CCOCC4)sc32)c1OC (stereo not shown),12.9%,77.78%
CC(=O)N1CCc2[nH]cnc2C12CCN(C(=O)Cc1ccccn1)CC2,-1.916%,7.576%
Cc1ncsc1C(=O)NCCOc1ncc(Cl)cc1Cl,18.21%,1.891%

Repeated from the top, 4 entries:

{"smiles": "CN(Cc1ccco1)C(=O)C1=NN(C)C(=O)CC1", "T. brucei": -26.31, "PfKRS1": 1.778}
{"smiles": "[H][C@@]12CS(=O)(=O)C[C@]1([H])N(Cc1cc(F)cc(F)c1)CCN2CCO", "T. brucei": -20.25}
{"smiles": "COc1ccc(OC2CCN(c3ccncc3)CC2)cc1", "T. brucei": 2.809, "PfKRS1": 3.087}
{"smiles": "O=c1c(NCCNCCO)c(N2CCN(Cc3ccccc3)CC2)c1=O", "T. brucei": -18.41, "PfKRS1": 4.197}